Taken from: PubChem BioAssay AID1259308 (NCATS, 2017)

Aim: 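Knock-downs that increase output of a recombinant reporter protein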 (primary screen)
System: human HEK293 embryonic kidney cells stably expressing firefly luciferase (HEK-CMV-Luc2-Hygro)
Reagent: single siRNA against human genes, 0.8 pmol siRNA per well
Time to read-out: 72 h
Measurement: 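Luciferase light (ONE-Glo) measured on one replicate plate set and viability (CellTiter-Glo) on the other, scaled to a negative control siRNA, with robust z-scores and luciferase per cell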
Reading the numbers: total luciferase, z-score and total luciferase, % of control: higher = more reporter protein produced
Active means: 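Active when the median/MAD z-score for overall luciferase is greater than 3; a gene was taken forward for validation with new siRNAs if at least two of its three siRNAs passed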
Meaning of the calls: active = raised luciferase; inactive = no rise
The deposit covers about 59,000 reagents; this is an unselected part. About 1,510 of them (2.6%) were called active. 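Calls use total luciferase alone and ignore viability, so some active siRNAs may act by altering cell number.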 The numbers tell different reagents against one gene apart. Not all columns of the deposit are shown.

With IRX3 #1, what was measured?
total luciferase, z-score: -0.612; total luciferase, % of control: 69.7; outcome: inactive

How did the screen score IRX3 #2?
total luciferase, z-score: 0.153; total luciferase, % of control: 84.9; outcome: inactive

For IRX3 #3, how do the results read?
total luciferase, z-score: 3.66; total luciferase, % of control: 155; outcome: active

With ZNF7 #1, what was measured?
total luciferase, z-score: 0.277; total luciferase, % of control: 87.4; outcome: inactive

What is on record for ZNF7 #2?
total luciferase, z-score: 1.43; total luciferase, % of control: 110; outcome: inactive

With ZNF7 #3, how do the results read?
total luciferase, z-score: -0.541; total luciferase, % of control: 71.1; outcome: inactive

How did the screen score ST3GAL1 #1?
total luciferase, z-score: -0.21; total luciferase, % of control: 77.7; outcome: inactive

How did the screen score ST3GAL1 #2?
total luciferase, z-score: 0.516; total luciferase, % of control: 92.1; outcome: inactive

With ST3GAL1 #3, how do the results read?
total luciferase, z-score: -1.16; total luciferase, % of control: 58.9; outcome: inactive

What did the screen give for GKAP1 #1?
total luciferase, z-score: 1.59; total luciferase, % of control: 114; outcome: inactive

For GKAP1 #2, how do the results read?
total luciferase, z-score: -0.312; total luciferase, % of control: 75.7; outcome: inactive

With GKAP1 #3, what does the deposit list?
total luciferase, z-score: 2.18; total luciferase, % of control: 125; outcome: inactive

For OXT #1, what was measured?
total luciferase, z-score: 1.13; total luciferase, % of control: 104; outcome: inactive

How did the screen score OXT #2?
total luciferase, z-score: -0.213; total luciferase, % of control: 77.6; outcome: inactive

Which result is listed for OXT #3?
total luciferase, z-score: 1.14; total luciferase, % of control: 105; outcome: inactive

Limited to “total luciferase, % of control”, for 4 of the entries above:
ZNF7 #1: 87.4
ZNF7 #2: 110
ZNF7 #3: 71.1
ST3GAL1 #1: 77.7

More records follow:
Which result is listed for OR5C1 #1?
total luciferase, z-score: 1.25; total luciferase, % of control: 107; outcome: inactive

With OR5C1 #2, what does the deposit list?
total luciferase, z-score: 0.713; total luciferase, % of control: 96.1; outcome: inactive

For OR5C1 #3, what does the deposit list?
total luciferase, z-score: 0.488; total luciferase, % of control: 91.6; outcome: inactive

How did the screen score RABL3 #1?
total luciferase, z-score: 0.706; total luciferase, % of control: 95.9; outcome: inactive

Which result is listed for RABL3 #2?
total luciferase, z-score: -0.434; total luciferase, % of control: 73.3; outcome: inactive

For RABL3 #3, what was measured?
total luciferase, z-score: -0.964; total luciferase, % of control: 62.7; outcome: inactive

What did the screen give for RPA4 #1?
total luciferase, z-score: 2.5; total luciferase, % of control: 132; outcome: inactive

Which result is listed for RPA4 #2?
total luciferase, z-score: -0.514; total luciferase, % of control: 71.7; outcome: inactive

With RPA4 #3, how do the results read?
total luciferase, z-score: -0.815; total luciferase, % of control: 65.7; outcome: inactive

How did the screen score MBD1 #1?
total luciferase, z-score: 0.804; total luciferase, % of control: 97.9; outcome: inactive

For MBD1 #2, how do the results read?
total luciferase, z-score: -0.151; total luciferase, % of control: 78.9; outcome: inactive

What did the screen give for MBD1 #3?
total luciferase, z-score: -2.17; total luciferase, % of control: 38.8; outcome: inactive

For MSL1 #1, what does the deposit list?
total luciferase, z-score: -0.118; total luciferase, % of control: 79.5; outcome: inactive

For MSL1 #2, what was measured?
total luciferase, z-score: -0.884; total luciferase, % of control: 64.3; outcome: inactive

For MSL1 #3, what was measured?
total luciferase, z-score: -0.998; total luciferase, % of control: 62; outcome: inactive

Which result is listed for RBMY2DP #1?
total luciferase, z-score: -0.0928; total luciferase, % of control: 80; outcome: inactive

What did the screen give for RBMY2DP #2?
total luciferase, z-score: 0.0672; total luciferase, % of control: 83.2; outcome: inactive

With RBMY2DP #3, what was measured?
total luciferase, z-score: 2.19; total luciferase, % of control: 125; outcome: inactive

Which result is listed for XRCC5 #1?
total luciferase, z-score: -0.475; total luciferase, % of control: 72.4; outcome: inactive

With XRCC5 #2, what does the deposit list?
total luciferase, z-score: -0.622; total luciferase, % of control: 69.5; outcome: inactive

For XRCC5 #3, how do the results read?
total luciferase, z-score: -1.03; total luciferase, % of control: 61.4; outcome: inactive

With PHKA1P1 #1, what does the deposit list?
total luciferase, z-score: -2.24; total luciferase, % of control: 37.4; outcome: inactive

Which result is listed for PHKA1P1 #2?
total luciferase, z-score: 1.35; total luciferase, % of control: 109; outcome: inactive

For PHKA1P1 #3, what was measured?
total luciferase, z-score: -0.00951; total luciferase, % of control: 81.7; outcome: inactive

How did the screen score WASF2 #1?
total luciferase, z-score: 2.52; total luciferase, % of control: 132; outcome: inactive

With WASF2 #2, how do the results read?
total luciferase, z-score: -0.656; total luciferase, % of control: 68.8; outcome: inactive

How did the screen score WASF2 #3?
total luciferase, z-score: 1.47; total luciferase, % of control: 111; outcome: inactive
